Laboratory results taken from paper PMC11113010.
These are yes or no findings as the source states them, for the method shown. Binding seen in cells or lysates may run through a third protein. Some results given as binding are weak or reduced against the parent protein; the word gives no strength.

Protein sequences, listed by entry. Tags and fused reporters are not part of them. Residues count along the entry.
UniProt P19256, residues 29-250: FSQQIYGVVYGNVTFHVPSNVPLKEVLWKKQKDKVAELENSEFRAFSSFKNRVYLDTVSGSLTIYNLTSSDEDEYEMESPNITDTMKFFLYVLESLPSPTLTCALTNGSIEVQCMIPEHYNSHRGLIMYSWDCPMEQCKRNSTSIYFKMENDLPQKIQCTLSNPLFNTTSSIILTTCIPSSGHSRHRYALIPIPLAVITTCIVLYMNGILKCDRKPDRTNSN
UniProt Q9NZQ7, residues 19-290: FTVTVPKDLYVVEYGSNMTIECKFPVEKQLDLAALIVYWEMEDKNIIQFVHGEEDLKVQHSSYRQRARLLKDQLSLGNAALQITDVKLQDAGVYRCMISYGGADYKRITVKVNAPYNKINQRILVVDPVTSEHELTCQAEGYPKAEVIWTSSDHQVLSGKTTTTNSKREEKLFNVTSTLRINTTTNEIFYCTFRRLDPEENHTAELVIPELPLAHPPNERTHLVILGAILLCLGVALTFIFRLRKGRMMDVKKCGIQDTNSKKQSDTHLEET

Target: T1, CMTM6 (CKLF like MARVEL transmembrane domain containing 6) (human (endogenous in A375)) (UniProt Q9NX76)
T1 sequence: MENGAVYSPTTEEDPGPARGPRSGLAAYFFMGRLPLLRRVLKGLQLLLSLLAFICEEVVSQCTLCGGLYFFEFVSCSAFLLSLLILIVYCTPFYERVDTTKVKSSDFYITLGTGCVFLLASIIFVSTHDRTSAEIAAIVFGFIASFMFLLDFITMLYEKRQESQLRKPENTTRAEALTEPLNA
Test: co-IP; whole-cell lysates of A375 cells in 1% digitonin, 50 mM Tris-HCl pH 7.5, 150 mM NaCl; anti-CMTM6, anti-CD58 or anti-PD-L1 antibody 2 h at 4°C, Protein G Dynabeads, immunoblot; knockout cells (CMTM6, CD58, PD-L1) as controls of antibody specificity

binding | Substance
binds | CD58 (LFA-3) (from UniProt P19256 29-250)
binds | PD-L1 (from UniProt Q9NZQ7 19-290)
